What all share (assay): log2 fold change, soluble protein after heating vs DMSO (PISA); higher = thermal stabilisation; K562 cells, 10 uM, 30 min; active = over 0.2 and 3.5 SD of the protein, either way, in both replicates (recomputed)
Compound in assay [1]: C1=CC=C(C=C1)[C@H](COC2=CC3=C(C=C2)NC(=O)N3)NC(=O)C4=CC=CN(C4=O)CC5=CC(=C(C=C5)F)F
An outline of the steps:
(§1)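 K562 cells at 2×10^6 cells/mL were exposed to 10 μM compound for 30 min, then aliquots were heated for 3 min across 48°C-58°C, pooled, and extracted in PBS containing 0.5% NP-40 at 4°C. The supernatant after 21,000xg for 90 min was taken as soluble protein and measured by TMTpro 16plex LC-MS/MS with channel sums equalised. Thermal stability is reported relative to control samples, with values from duplicates. Fold changes are given on a log2 scale.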

Protein sequences, listed by entry. Tags and fused reporters are not part of them. Lines headed by an entry give the natural chain unless they say otherwise; changes in a name come on top.
UniProt Q99570, whole entry, looked up: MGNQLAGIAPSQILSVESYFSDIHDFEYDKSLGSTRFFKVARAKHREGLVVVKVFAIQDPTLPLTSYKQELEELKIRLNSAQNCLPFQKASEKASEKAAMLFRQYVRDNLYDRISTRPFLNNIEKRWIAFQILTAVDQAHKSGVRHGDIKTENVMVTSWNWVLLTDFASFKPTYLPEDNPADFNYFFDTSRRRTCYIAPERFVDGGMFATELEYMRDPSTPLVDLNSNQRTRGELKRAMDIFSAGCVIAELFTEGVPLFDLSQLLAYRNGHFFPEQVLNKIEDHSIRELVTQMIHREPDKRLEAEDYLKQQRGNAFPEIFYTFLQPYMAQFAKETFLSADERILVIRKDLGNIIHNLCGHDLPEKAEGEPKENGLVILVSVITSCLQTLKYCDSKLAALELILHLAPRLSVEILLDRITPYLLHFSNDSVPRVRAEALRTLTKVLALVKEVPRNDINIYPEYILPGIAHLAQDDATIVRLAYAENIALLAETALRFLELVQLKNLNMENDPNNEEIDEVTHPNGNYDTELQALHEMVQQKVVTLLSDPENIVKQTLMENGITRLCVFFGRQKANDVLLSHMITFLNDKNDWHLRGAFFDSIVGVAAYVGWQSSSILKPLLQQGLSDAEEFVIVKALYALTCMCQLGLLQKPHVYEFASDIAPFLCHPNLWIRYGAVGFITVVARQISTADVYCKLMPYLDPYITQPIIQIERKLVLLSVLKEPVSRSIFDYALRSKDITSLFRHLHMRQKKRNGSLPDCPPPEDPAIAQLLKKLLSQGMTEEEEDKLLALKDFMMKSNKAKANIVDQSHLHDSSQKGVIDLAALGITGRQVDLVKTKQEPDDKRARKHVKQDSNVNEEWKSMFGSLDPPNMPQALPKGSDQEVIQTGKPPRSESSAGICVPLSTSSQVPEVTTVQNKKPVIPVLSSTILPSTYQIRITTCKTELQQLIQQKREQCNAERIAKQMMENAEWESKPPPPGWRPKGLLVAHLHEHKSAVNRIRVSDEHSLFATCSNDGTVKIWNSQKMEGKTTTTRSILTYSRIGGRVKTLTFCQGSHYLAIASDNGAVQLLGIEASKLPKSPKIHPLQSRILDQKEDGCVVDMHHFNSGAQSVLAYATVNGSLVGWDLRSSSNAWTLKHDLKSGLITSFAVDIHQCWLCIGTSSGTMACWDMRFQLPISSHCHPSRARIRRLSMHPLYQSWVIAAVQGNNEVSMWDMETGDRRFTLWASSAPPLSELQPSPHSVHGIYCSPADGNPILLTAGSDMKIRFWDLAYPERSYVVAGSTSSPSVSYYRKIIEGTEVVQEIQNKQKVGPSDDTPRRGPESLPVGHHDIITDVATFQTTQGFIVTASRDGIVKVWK
UniProt P07737, whole entry, looked up: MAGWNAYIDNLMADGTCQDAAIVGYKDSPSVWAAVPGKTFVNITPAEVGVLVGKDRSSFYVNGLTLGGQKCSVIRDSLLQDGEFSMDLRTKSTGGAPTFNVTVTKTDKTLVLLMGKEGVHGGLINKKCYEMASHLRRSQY
UniProt Q8TBX8: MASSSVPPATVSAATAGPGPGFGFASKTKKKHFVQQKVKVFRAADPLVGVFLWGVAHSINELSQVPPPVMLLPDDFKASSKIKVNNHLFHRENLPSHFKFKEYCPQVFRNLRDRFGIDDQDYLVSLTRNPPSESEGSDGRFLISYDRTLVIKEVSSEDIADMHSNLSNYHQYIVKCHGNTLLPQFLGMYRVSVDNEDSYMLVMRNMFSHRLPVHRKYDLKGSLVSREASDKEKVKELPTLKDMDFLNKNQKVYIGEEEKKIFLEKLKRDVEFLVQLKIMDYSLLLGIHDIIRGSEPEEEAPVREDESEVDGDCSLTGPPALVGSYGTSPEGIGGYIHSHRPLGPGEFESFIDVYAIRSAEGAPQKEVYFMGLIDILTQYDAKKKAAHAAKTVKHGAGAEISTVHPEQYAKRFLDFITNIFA
UniProt Q8IWS0: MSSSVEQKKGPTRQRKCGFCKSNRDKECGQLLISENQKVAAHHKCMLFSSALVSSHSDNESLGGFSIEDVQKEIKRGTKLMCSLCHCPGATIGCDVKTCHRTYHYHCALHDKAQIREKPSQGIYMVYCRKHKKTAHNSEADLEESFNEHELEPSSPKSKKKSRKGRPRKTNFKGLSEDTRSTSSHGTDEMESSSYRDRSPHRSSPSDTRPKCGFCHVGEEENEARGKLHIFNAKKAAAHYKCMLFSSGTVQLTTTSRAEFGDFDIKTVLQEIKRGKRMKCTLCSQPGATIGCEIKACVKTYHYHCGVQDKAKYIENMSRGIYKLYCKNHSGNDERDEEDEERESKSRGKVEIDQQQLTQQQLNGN
UniProt Q32NB8: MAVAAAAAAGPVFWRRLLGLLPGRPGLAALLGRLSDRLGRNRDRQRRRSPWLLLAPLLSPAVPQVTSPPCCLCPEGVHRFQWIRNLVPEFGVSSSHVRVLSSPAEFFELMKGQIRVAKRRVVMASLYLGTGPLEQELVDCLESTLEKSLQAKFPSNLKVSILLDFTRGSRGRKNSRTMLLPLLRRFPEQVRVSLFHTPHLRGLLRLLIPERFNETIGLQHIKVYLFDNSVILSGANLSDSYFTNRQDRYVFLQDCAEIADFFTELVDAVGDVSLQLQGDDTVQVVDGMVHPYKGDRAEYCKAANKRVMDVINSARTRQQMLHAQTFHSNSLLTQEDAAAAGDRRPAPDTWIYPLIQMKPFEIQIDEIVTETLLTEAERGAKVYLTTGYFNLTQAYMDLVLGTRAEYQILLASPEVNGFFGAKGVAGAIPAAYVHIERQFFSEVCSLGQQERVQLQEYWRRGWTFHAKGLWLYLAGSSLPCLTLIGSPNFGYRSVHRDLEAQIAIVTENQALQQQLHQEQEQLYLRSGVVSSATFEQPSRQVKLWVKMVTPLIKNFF
UniProt P12273: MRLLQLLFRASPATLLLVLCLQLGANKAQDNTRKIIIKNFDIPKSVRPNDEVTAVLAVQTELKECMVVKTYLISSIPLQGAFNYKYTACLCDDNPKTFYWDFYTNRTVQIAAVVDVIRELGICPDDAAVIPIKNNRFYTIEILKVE
UniProt Q96G03: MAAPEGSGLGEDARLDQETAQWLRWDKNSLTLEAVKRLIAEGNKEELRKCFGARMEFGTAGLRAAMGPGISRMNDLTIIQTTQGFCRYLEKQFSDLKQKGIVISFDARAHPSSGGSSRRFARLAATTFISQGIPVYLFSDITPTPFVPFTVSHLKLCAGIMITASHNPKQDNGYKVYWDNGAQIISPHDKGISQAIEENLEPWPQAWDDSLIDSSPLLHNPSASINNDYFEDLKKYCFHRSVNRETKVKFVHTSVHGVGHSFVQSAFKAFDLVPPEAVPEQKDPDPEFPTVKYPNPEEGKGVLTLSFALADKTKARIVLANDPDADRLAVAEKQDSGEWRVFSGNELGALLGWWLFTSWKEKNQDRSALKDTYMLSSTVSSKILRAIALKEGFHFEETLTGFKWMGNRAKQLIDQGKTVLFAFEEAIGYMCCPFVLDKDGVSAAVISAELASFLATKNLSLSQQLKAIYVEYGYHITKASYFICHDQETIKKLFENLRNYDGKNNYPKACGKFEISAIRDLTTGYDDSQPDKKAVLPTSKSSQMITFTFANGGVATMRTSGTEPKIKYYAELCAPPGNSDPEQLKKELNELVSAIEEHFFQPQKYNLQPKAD
UniProt Q01813: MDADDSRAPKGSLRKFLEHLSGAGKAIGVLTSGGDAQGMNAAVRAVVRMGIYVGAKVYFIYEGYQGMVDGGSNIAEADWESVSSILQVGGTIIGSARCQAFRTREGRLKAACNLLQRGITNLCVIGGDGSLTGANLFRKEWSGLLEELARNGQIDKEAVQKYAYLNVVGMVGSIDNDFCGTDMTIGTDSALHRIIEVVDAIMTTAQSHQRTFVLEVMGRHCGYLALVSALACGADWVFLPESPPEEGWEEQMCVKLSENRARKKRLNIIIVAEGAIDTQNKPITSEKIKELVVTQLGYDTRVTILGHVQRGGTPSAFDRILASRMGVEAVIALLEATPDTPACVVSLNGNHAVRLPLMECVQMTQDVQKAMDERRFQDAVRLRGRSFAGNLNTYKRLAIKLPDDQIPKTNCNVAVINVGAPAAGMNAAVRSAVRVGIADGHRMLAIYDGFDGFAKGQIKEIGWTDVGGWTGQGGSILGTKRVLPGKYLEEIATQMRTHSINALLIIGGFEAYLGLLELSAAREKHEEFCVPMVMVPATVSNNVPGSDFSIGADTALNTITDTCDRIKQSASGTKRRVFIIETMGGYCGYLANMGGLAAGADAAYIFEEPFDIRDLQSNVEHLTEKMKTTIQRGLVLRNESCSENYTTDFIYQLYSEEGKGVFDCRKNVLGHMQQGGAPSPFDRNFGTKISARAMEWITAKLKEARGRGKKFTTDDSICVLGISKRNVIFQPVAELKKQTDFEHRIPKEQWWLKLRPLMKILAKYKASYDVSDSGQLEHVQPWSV
UniProt Q9BZM1: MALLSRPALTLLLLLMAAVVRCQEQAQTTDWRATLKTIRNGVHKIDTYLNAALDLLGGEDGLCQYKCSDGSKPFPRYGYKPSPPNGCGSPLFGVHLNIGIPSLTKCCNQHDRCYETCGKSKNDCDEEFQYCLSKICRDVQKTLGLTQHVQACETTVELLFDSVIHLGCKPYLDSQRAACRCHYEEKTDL
UniProt Q8NDX5: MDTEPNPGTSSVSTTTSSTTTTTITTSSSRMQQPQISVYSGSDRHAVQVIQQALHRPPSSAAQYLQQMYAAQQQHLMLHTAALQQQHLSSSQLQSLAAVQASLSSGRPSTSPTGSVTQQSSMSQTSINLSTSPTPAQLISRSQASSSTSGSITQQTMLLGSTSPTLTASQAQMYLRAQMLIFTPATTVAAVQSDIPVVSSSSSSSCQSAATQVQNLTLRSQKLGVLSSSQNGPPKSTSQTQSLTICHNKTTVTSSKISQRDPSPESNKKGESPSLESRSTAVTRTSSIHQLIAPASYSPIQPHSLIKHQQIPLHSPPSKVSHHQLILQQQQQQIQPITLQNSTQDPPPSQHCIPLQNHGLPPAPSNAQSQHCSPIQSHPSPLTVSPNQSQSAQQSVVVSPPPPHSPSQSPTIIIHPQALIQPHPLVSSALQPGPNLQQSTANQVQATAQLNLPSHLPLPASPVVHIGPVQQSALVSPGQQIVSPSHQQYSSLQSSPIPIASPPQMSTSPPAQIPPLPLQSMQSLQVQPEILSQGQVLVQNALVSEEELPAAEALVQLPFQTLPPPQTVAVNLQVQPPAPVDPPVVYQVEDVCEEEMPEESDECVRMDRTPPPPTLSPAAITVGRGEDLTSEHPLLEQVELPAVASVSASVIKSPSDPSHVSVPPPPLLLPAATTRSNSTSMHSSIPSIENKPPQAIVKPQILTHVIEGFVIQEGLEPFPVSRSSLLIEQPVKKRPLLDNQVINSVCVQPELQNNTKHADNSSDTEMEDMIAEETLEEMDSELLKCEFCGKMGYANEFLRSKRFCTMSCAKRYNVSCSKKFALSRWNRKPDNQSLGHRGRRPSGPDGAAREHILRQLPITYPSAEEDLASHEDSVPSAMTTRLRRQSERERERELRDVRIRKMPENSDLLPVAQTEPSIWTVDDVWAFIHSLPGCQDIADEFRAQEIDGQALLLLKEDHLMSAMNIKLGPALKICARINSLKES
UniProt Q8NEB9, whole entry, looked up: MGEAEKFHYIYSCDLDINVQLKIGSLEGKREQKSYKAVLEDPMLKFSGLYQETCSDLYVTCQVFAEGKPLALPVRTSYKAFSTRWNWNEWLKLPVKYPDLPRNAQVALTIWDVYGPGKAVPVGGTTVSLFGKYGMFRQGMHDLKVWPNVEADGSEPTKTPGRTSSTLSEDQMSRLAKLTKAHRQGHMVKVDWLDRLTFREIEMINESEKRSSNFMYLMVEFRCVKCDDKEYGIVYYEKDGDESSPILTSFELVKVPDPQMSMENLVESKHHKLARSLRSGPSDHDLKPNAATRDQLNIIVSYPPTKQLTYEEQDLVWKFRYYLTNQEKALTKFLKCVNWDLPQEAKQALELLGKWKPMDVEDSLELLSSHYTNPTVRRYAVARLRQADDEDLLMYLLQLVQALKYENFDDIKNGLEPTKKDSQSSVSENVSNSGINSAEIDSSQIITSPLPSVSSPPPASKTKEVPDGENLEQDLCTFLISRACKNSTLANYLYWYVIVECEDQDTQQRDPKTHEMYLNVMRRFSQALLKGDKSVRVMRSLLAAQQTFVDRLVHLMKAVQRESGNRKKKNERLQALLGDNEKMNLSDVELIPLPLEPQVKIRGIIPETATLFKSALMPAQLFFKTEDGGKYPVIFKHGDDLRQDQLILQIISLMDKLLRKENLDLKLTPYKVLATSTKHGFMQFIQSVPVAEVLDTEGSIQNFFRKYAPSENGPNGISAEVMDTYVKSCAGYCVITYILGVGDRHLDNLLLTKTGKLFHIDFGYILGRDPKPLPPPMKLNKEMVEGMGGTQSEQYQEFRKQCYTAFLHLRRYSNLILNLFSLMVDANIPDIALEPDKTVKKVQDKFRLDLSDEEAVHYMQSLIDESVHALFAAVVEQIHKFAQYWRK
UniProt P60673: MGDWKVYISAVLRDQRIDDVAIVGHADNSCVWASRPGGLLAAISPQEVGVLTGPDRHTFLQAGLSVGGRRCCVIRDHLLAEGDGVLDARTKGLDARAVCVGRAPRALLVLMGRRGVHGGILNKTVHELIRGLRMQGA

Compound in assay [2]: CC1=C(SC2=C1C(=N[C@H](C3=NN=C(N32)C)CC(=O)N)C4=CC=C(C=C4)Cl)C
The method in brief:
as §1

Compound in assay [3]: CC1=C2C(=CC=C1)N=C(N(C2=O)C3=CC=CC=C3C)CN4C=NC5=C(N=CN=C54)N
An outline of the steps: as §1

Compound in assay [4]: Cc1sc2c(c1C)C(c1ccc(Cl)cc1)=N[C@@H](CC(=O)OC(C)(C)C)c1nnc(C)n1-2
The method in brief:
as §1

Compound in assay [5]: c1ccc([C@@H]2C[C@H]2NC2CCNCC2)cc1
The method in brief:
as §1

The list shows a part of the results.

Consider PIK3R4 (UniProt Q99570), for which the log2 fold change was inactive: -0.018 in assay [1]; inactive: 0.006 in assay [2]; inactive: 0.056 in assay [3]; inactive: -0.016 in assay [4]; inactive: -0.02 in assay [5].

Turning to PFN1 (UniProt P07737), the log2 fold change was inactive: 0.004 in assay [1]; inactive: 0.031 in assay [2]; inactive: 0.027 in assay [3]; inactive: -0.019 in assay [4]; inactive: -0.014 in assay [5].

Turning to PLA2G4B isoform 6 (UniProt P0C869), the log2 fold change in assay [1] was inactive: -0.097; in assay [2] it was inactive: 0.233; in assay [3], inactive: -0.03; in assay [4], inactive: -0.054; in assay [5], inactive: -0.099.

On to PKN1 isoform 2 (UniProt Q16512), for which the log2 fold change in assay [1] was inactive: -0.077; in assay [2], inactive: 0.079; in assay [3], inactive: 0.069; in assay [4] it was inactive: 0.015; in assay [5], inactive: 0.

With PIP4K2C (UniProt Q8TBX8), the log2 fold change is inactive: -0.148 in assay [1]; inactive: 0.034 in assay [2]; inactive: 0.05 in assay [3]; inactive: -0.029 in assay [4]; inactive: -0.042 in assay [5].

With PHPT1 (UniProt Q9NRX4), the log2 fold change is inactive: 0.005 in assay [1]; inactive: 0.011 in assay [2]; inactive: 0.091 in assay [3]; inactive: -0.05 in assay [4]; inactive: -0.016 in assay [5].

Turning to PHF6 (UniProt Q8IWS0), the log2 fold change in assay [1] was inactive: 0.094; in assay [2], inactive: -0.173; in assay [3], inactive: -0.094; in assay [4], inactive: 0.058; in assay [5], inactive: 0.05.

As for PIGG (UniProt Q5H8A4), the log2 fold change in assay [1] was inactive: 0.12; in assay [2], inactive: 0.031; in assay [3], inactive: -0.091; in assay [4], inactive: 0.006; in assay [5] it was inactive: -0.003.

For PGM2L1 (UniProt Q6PCE3), the log2 fold change in assay [1] is inactive: -0.001; in assay [2], inactive: 0.011; in assay [3], inactive: 0.007; in assay [4] it was inactive: 0.021; in assay [5] it was inactive: 0.058.

For the target PGS1 (UniProt Q32NB8), the log2 fold change in assay [1] is inactive: -0.254; in assay [2], inactive: 0.111; in assay [3], inactive: 0.075; in assay [4], inactive: -0.038; in assay [5], inactive: -0.048.

On to PIP (UniProt P12273), for which the log2 fold change in assay [1] is inactive: -0.44; in assay [2], inactive: 0.15; in assay [3], inactive: -0.394; in assay [4], inactive: -0.5; in assay [5], inactive: -0.063.

For the target PFDN4 (UniProt Q9NQP4), the log2 fold change is inactive: -0.09 in assay [1]; inactive: -0.053 in assay [2]; inactive: -0.006 in assay [3]; inactive: -0.05 in assay [4]; inactive: -0.029 in assay [5].

Turning to PGM2 (UniProt Q96G03), the log2 fold change in assay [1] is inactive: 0.003; in assay [2] it was inactive: 0.002; in assay [3], inactive: 0.005; in assay [4], inactive: -0.014; in assay [5], inactive: 0.019.

Consider PIK3CD (UniProt O00329), for which the log2 fold change is inactive: -0.166 in assay [1]; inactive: -0.126 in assay [2]; active: 0.424 in assay [3]; inactive: -0.086 in assay [4]; inactive: 0.018 in assay [5].

For PFKP (UniProt Q01813), the log2 fold change is inactive: 0.023 in assay [1]; inactive: 0.064 in assay [2]; inactive: 0.087 in assay [3]; inactive: -0.042 in assay [4]; inactive: -0.002 in assay [5].

PHAX (UniProt Q9H814): the log2 fold change in assay [1] was inactive: 0.014; in assay [2], inactive: -0.019; in assay [3], inactive: -0.015; in assay [4] it was inactive: -0.024; in assay [5], inactive: 0.022.

PHYKPL (UniProt Q8IUZ5): the log2 fold change in assay [4] was inactive: -0.046.

Turning to PGLS (UniProt O95336), the log2 fold change in assay [1] is inactive: -0.019; in assay [2], inactive: 0.041; in assay [3] it was inactive: -0.011; in assay [4], inactive: -0.014; in assay [5], inactive: -0.073.

Regarding PLA2G12A (UniProt Q9BZM1), the log2 fold change in assay [1] was inactive: -0.011; in assay [2], inactive: 0.07; in assay [4], inactive: 0.112; in assay [5], inactive: 0.239.

In the case of PIK3CA (UniProt P42336), the figures for the log2 fold change in assay [1], in assay [2] and in assay [5] were inactive: 0.017, inactive: -0.045 and inactive: 0.181, respectively.

Consider PHC3 isoform 7 (UniProt Q8NDX5), for which the log2 fold change in assay [1] was inactive: -0.023; in assay [2], inactive: -0.025; in assay [5], inactive: -0.075.

For the target PLAUR (UniProt Q03405), the log2 fold change in assay [2] is inactive: -0.08; in assay [5], inactive: -0.002.

As to PIK3C3 (UniProt Q8NEB9), the log2 fold change in assay [1] was inactive: -0.038; in assay [2], inactive: 0.005; in assay [3], inactive: 0.009; in assay [4] it was inactive: 0.009; in assay [5], inactive: -0.01.

Turning to PFN3 (UniProt P60673), the log2 fold change was inactive: 0.733 in assay [2], inactive: 0.146 in assay [3], inactive: 0.023 in assay [4] and inactive: -0.101 in assay [5].

For the target PHF19 isoform 2 (UniProt Q5T6S3), the log2 fold change in assay [1] is inactive: 0.002; in assay [3] it was inactive: 0.067; in assay [4], inactive: 0.035.

The values above are taken from the supplement of paper PMC10849652.
